Source: the supplement of paper PMC10735217
Structures can show the parent of a compound that is named as a salt. The list shows a part of the results. This data set is noisy: repeats of one test often differ as much as different tests do.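 In a drug-repurposing library screen, luminescence reads luciferase driven by eight TEAD-binding elements, stably integrated into human kidney-derived cells. Compounds scoring over five robust Z scores above the plate mean are called hits.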

Test system: HEK293A TEAD-LUC reporter
Assay: TEAD-luciferase reporter activity (YAP activation), robust Z score vs plate; higher = stronger YAP/TEAD activation
Details: 24 h

Row | SMILES | TEAD-luciferase reporter activity (compound concentration: 200 nM) | TEAD-luciferase reporter activity (compound concentration: 2 uM) | TEAD-luciferase reporter activity (compound concentration: 10 uM)
1 | COc1ccc(CN(CCN(C)C)c2nccs2)cc1 | inactive: -1.06 | inactive: -1.61 | inactive: -1.02
2 | C=C1C(=O)OC2CC3(C)CCCC(C)C3=CC12 (stereo not drawn) | inactive: 1.02 | inactive: -0.992 | inactive: -0.25
3 | COc1ccc(OCc2ccc(COc3c(Cl)cccc3Cl)cc2)c(Cl)c1 [pocapavir] | inactive: -1.06 | inactive: -2.06 | inactive: -0.235
4 | Cc1cccc(COC(=O)N(C)C)c1 | inactive: 0.974 | inactive: -1.86 | inactive: -1.71
5 | CCc1c(C(=O)N[C@H]2CC[C@H](CO)CC2)cnn1-c1ccc(C)cc1 | inactive: 1.63 | inactive: -1.58 | inactive: 2.5
6 | CC(C)(C)OC(=O)N1CCC(C(=O)O)CC1 | inactive: -0.612 | inactive: -1.55 | inactive: -1.39
7 | Cc1ccc(NC(=O)NCc2ccc3c(c2)CN(C2CCC(=O)NC2=O)C3=O)cc1Cl (stereo not drawn) | inactive: -1.75 | inactive: -0.98 | inactive: -2.1
8 | CC(C)(C)n1nnc2c3c(ccc21)C1=CC(=O)CC[C@@]1(CCOc1ccccc1)C3 | inactive: -2.34 | inactive: 0.765 | inactive: -0.994
9 | C[N+]1(CC2COC(c3ccccc3)(C3CCCCC3)O2)CCCCC1 (stereo not drawn) [Oxapium Iodide] | inactive: 0.233 | inactive: -1.69 | inactive: 2.88
10 | CC(C)OP(=O)(O)COC(CF)Cn1cnc2c(N)ncnc21 (stereo not drawn) | inactive: 1.1 | inactive: -0.597 | inactive: -1.3
11 | CN(CCNCc1cc(C(C)(C)C)cc(Br)c1O)CCNC(=O)c1nc(Cl)c(N)nc1N | inactive: 0.324 | inactive: -0.407 | inactive: -1.58
12 | NCCCC(N)(C(=O)O)C(F)F (stereo not drawn) [eflornithine, Aventis] |  | inactive: 0.764 | 
13 | N#Cc1ccc(Oc2ccc(NC(=O)Nc3ccc(Cl)c(C(F)(F)F)c3)cc2)cc1 | inactive: -1.11 | inactive: -2.51 | inactive: -0.521
14 | N#CCC(=O)c1nc(-c2cccs2)no1 | inactive: -0.0232 | inactive: 0.854 | inactive: 1.9
15 | O=S(=O)([O-])CCSSCCS(=O)(=O)[O-] [dimesna disulfide] | inactive: 0.165 | inactive: -0.733 | inactive: 0.472
16 | CN1CCN(CCCCN2C(=O)CN(/N=C/c3ccc(-c4ccc(Cl)cc4)o3)C2=O)CC1 [azimilide dihydrochloride] | inactive: -0.787 | inactive: -1.8 | inactive: -1.07
17 | N=C(NNc1ccc(Cl)cc1)c1ccccc1 | inactive: 1.22 | inactive: 3.45 | inactive: -1.01
18 | O=C(Nc1nc(=O)n(C2OC(COC(=O)c3ccccc3)C(OC(=O)c3ccccc3)C2OC(=O)c2ccccc2)cc1F)c1ccccc1 (stereo not drawn) | inactive: 0.784 | inactive: -0.532 | inactive: -0.0992
19 | CCC(C(=O)OCCN(CC)CC)c1ccccc1 (stereo not drawn) | inactive: -1.28 | inactive: 0.739 | inactive: -0.777
20 | CN1C2CCC1CC(OC(=O)c1c[nH]c3ccccc13)C2 (stereo not drawn) |  | inactive: 3.53 | 

Given with tabs: part of the list above
Row	SMILES	TEAD-luciferase reporter activity (compound concentration: 200 nM)	TEAD-luciferase reporter activity (compound concentration: 2 uM)	TEAD-luciferase reporter activity (compound concentration: 10 uM)
13	N#Cc1ccc(Oc2ccc(NC(=O)Nc3ccc(Cl)c(C(F)(F)F)c3)cc2)cc1	inactive: -1.11	inactive: -2.51	inactive: -0.521
14	N#CCC(=O)c1nc(-c2cccs2)no1	inactive: -0.0232	inactive: 0.854	inactive: 1.9

Next part:

Row | SMILES | TEAD-luciferase reporter activity (compound concentration: 200 nM) | TEAD-luciferase reporter activity (compound concentration: 2 uM) | TEAD-luciferase reporter activity (compound concentration: 10 uM)
21 | CN1C2CCC1CC(OC(=O)c1c[nH]c3ccccc13)C2 (stereo not drawn) [Tropisetron Hydrochloride] | inactive: 0.583 | inactive: 3.69 | inactive: 0.357
22 | CC[N+](CC)(CC)CCOc1ccc(/C=C/c2ccccc2)cc1 | inactive: -0.461 | inactive: -1.1 | inactive: 0.784
23 | CC(=O)N1CCN(S(=O)(=O)c2cccc(C(=O)Nc3cc(C)nc4c(F)cc(F)cc34)c2)CC1 | inactive: -0.825 | inactive: -0.53 | inactive: -2.21
24 | COc1cccc(CCNC(=O)C2(c3ccc(Cl)cc3)CCOCC2)c1 | inactive: 0.318 |  | inactive: 1.36
25 | CCCC(=O)N1Cc2ccccc2CC2(CCCCN2C)C1 (stereo not drawn) | inactive: -2.17 |  | inactive: 3.81
26 | C/C(CC(=O)OC(C)(C)C)=N\Nc1ccc(N2CCOCC2)nn1 | inactive: -1.9 | inactive: 1.08 | inactive: 1.08
27 | CC(C)[C@H]1CC[C@H](C(=O)N[C@H](Cc2ccccc2)C(=O)O)CC1 [nateglinide] |  | inactive: 2.41 | 
28 | CC(C)[C@H]1CC[C@H](C(=O)N[C@H](Cc2ccccc2)C(=O)O)CC1 | inactive: -0.656 |  | inactive: -2.43
29 | N=c1ccn2c(n1)O[C@H]1[C@H](O)[C@@H](CO)O[C@H]12 [Ancitabine hydrochloride] | inactive: -0.012 | inactive: -1.7 | inactive: -1.58
30 | Cc1nnc(-c2cc3c(OC[C@@H](O)CN4CCC(c5ccc(Cl)c(Cl)c5)CC4)cccc3o2)o1 | inactive: 0.917 | inactive: -0.222 | inactive: -0.325
31 | CC(C)[N+]1(C)[C@@H]2CC[C@H]1C[C@@H](OC(=O)C(CO)c1ccccc1)C2 (stereo partly drawn) [ipratropium bromide] | inactive: 0.957 | inactive: 2.83 | inactive: 1.4
32 | COc1ccc(NC(=O)c2ccc(C(=N)N(C)C)cc2)c(C(=O)Nc2ccc(Cl)cn2)c1 [Betrixaban] | inactive: 1.01 | inactive: 1.46 | inactive: -0.972
33 | CCCOC(C(=O)OC1CCN(C)CC1)(c1ccccc1)c1ccccc1 [propiverine hydrochloride ER] |  | inactive: 1.67 | 
34 | CCCOC(C(=O)OC1CCN(C)CC1)(c1ccccc1)c1ccccc1 [propiverine hydrochloride] | inactive: 1.21 |  | inactive: -0.922
35 | O=C(NCc1ccc(F)cc1)c1nc(N2CCCCS2(=O)=O)c2cccnc2c1O | inactive: -1.06 | inactive: -0.0946 | inactive: -0.162
36 | CC(c1cccc(O)c1)C1CCCN(C)C1 (stereo not drawn) | inactive: 0.249 | inactive: -1.52 | inactive: -0.811
37 | OCCNCCOc1ccc(/C(=C(\c2ccccc2)C(F)(F)F)c2ccccc2)cc1 | inactive: -0.0912 | inactive: -0.832 | inactive: 0.2
38 | Cc1nnc(NS(=O)(=O)c2ccc(N)cc2)s1 | inactive: -1.46 | inactive: 0.204 | inactive: 0.109
39 | CCCCN1CCC(CNC(=O)c2c3n(c4ccccc24)CCCO3)CC1 [Piboserod hydrochloride] | inactive: -0.522 | inactive: -1.14 | inactive: 3.74
40 | COc1ccc([C@H](O)CN2CCN(c3cccccc3=O)CC2)cc1OC | inactive: -1.34 | inactive: 2.56 | inactive: -0.415

Row | SMILES | TEAD-luciferase reporter activity (compound concentration: 200 nM) | TEAD-luciferase reporter activity (compound concentration: 2 uM) | TEAD-luciferase reporter activity (compound concentration: 10 uM)
41 | Cc1cc(CO)nc2cc3c(cc12)OC(C)(C)[C@H](O)[C@H]3NCCc1ccccc1 | inactive: -0.0145 | inactive: -0.766 | inactive: -0.907
42 | Nc1ncnc2c1ncn2C1OC(COP(=O)(O)O)C(O)C1O (stereo not drawn) [vidarabine sodium phosphate] | inactive: -1.94 | inactive: 2.01 | inactive: -0.122
43 | O=C1Nc2c(Cl)ccc(O[C@H]3C[C@H](C(=O)O)C3)c2C2(CCCCC2)N1 | inactive: -0.833 | inactive: 1.05 | active: 6.28
44 | COC[C@H]1CN(c2ccc(OCCC(O)C(F)(F)F)cc2)C(=O)O1 (stereo partly drawn) | inactive: 0.268 | inactive: -0.176 | inactive: 0.354
45 | Cc1cn(C2C=CC(CO)O2)c(=O)[nH]c1=O (stereo not drawn) [stavudine] |  | inactive: 1.23 | 
46 | Cc1cn(C2C=CC(CO)O2)c(=O)[nH]c1=O (stereo not drawn) | inactive: -0.969 |  | inactive: 1.51
47 | O=C(O)CCc1nc2ccccc2[nH]1 [procodazol] | inactive: -0.0815 | inactive: -0.664 | inactive: -0.29
48 | CC[C@H]1OC(=O)[C@H](C)C(=O)[C@H](C)[C@@H](OC2O[C@H](C)C[C@H](N(C)C)[C@H]2O)[C@@](C)(OC)C[C@@H](C)C(=O)[C@@H](C)[C@H]2N(CCCCn3cnc(-c4cccnc4)c3)C(=O)O[C@]12C (stereo partly drawn) [Telithromycin] | inactive: -1.07 | inactive: -1.6 | inactive: 0.0781
49 | O=C(CC1CCN(CCOc2cccc3c2OCCO3)C1)c1ccc(F)cc1 (stereo not drawn) | inactive: 1.15 | inactive: -1.05 | inactive: 2.14
50 | O=C(O)Cc1cscc1Nc1c(Cl)cccc1Cl [Eltenac] | inactive: 0.552 | inactive: -1.83 | inactive: 0.914
51 | CN1CCN(C2=Nc3ccccc3Sc3ccc(Cl)cc32)CC1 [Clothiapine] | inactive: -0.597 |  | inactive: 1.15
52 | CN1CCN(C2=Nc3ccccc3Sc3ccc(Cl)cc32)CC1 [Clotiapine] |  | inactive: -2.19 | 
53 | COc1ccccc1N1CCN(CC(O)COc2cccc3ccccc23)CC1 (stereo not drawn) [naftopidil] |  | inactive: -0.106 | 
54 | COc1ccccc1N1CCN(CC(O)COc2cccc3ccccc23)CC1 (stereo not drawn) | inactive: -1.74 |  | inactive: 4.47
55 | CCCN(CCC)C(=O)C1=Cc2ccc(-c3ccc(C(=O)N4CCCC4)cc3)cc2NC(N)=C1 [Motolimod] |  | inactive: 0.652 | 
56 | C#CC1(O)CCC2[C@@H]3CCc4cc(O)cc(C)c4C3CC[C@@]21C (stereo partly drawn) [1-Methyl ethynyl estradiol] | inactive: 3.76 | inactive: 1.04 | inactive: 0.919
57 | COc1ccc(F)cc1C[C@@](O)(C1CCOCC1)[C@@H]1CNCCO1 [Edivoxetine HCl] | inactive: -1.36 |  | inactive: -0.626
58 | O=C(O)c1nn(-c2ccc(S(=O)(=O)O)cc2)c(O)c1/N=N/c1ccc(S(=O)(=O)O)cc1 | inactive: -2.42 | inactive: -0.608 | inactive: -0.56
59 | C=C1CC[C@H](O)C/C1=C/C=C1\CCC[C@]2(C)[C@@H]([C@H](C)CCCC(C)C)CC[C@@H]12 [Cholecalciferol] | inactive: -0.75 | inactive: 0.276 | inactive: 4.19
